We go through 1 substance from article PMC8863836.

The chains behind the UniProt entries cited, without tags or fusion partners.
UniProt Q9CUN6: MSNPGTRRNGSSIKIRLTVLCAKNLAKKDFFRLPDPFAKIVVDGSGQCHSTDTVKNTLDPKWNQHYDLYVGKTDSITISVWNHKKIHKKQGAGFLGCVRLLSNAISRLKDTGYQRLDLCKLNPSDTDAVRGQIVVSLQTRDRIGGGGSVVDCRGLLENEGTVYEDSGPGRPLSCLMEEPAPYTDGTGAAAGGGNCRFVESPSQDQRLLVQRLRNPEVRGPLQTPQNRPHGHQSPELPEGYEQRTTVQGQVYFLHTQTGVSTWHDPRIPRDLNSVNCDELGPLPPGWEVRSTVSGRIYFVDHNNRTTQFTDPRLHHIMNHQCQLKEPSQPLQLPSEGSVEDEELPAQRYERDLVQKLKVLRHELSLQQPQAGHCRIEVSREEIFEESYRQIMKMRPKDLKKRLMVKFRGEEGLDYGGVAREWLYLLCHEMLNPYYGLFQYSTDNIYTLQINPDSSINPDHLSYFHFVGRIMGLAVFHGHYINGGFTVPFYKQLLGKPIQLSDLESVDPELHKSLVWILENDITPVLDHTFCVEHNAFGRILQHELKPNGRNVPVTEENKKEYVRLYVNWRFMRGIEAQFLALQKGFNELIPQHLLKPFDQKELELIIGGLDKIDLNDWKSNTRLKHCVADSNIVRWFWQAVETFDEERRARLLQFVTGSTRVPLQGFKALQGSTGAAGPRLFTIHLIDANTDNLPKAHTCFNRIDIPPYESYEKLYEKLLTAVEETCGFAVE

The test deals with T1, UV radiation resistance-associated gene (UVRAG) (UniProt Q8K245).
T1 sequence: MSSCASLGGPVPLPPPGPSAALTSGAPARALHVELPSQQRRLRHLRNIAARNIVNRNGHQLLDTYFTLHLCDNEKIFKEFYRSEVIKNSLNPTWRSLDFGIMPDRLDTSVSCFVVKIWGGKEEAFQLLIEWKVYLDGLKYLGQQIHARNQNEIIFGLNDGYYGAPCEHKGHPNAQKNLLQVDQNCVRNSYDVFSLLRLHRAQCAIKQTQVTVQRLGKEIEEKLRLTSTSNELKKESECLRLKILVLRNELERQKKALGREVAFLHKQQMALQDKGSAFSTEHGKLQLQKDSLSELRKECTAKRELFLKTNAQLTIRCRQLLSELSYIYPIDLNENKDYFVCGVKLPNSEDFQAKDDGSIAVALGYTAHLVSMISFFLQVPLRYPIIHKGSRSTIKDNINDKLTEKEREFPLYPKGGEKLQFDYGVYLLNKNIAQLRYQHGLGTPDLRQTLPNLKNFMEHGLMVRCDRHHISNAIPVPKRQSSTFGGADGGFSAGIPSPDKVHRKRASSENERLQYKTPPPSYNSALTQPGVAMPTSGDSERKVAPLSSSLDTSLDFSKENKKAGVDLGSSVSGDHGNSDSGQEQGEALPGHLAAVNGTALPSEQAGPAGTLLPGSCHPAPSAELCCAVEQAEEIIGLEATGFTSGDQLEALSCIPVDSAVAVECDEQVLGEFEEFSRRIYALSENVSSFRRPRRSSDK
Kind of test: co-IP; cell lysates mixed with anti-UVRAG antibody/anti-SMURF1 antibody and protein A sepharose, overnight at 4 °C; washed three times with IP lysis buffer; Western blot for SMURF1 and UVRAG.

These are yes or no findings as the source states them, for the method shown. Binding seen in cells or lysates may run through a third protein. Some binding calls cover weakened binding; strength is not graded here.

“Smad ubiquitin regulatory factor 1 (SMURF1) (from UniProt Q9CUN6 1-731) (enzyme)”: the binding result was “binds”.
